Assay [1] has as its target T1, Kv4.3 (α subunit of Ito, KCND3) (human) (UniProt Q9UK17).
T1 sequence: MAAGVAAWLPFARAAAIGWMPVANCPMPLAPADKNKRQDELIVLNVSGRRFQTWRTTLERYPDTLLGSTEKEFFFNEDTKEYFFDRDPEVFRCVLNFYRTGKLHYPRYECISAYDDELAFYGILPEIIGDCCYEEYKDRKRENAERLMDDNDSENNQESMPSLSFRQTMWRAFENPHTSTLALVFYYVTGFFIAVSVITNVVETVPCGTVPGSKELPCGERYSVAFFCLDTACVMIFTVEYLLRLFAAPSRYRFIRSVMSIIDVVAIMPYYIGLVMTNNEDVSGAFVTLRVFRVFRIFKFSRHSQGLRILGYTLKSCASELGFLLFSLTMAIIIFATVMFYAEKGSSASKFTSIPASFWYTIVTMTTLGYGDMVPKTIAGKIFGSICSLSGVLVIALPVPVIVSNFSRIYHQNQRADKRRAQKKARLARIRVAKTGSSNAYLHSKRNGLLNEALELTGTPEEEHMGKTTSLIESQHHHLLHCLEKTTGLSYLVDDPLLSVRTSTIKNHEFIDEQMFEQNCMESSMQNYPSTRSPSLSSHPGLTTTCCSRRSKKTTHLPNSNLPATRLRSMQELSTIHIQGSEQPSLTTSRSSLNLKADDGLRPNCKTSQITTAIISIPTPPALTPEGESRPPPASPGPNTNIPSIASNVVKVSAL
Kind of assay: co-IP; whole-cell lysate (0.5 mg) of HEK293T cells co-transfected with hERG and Kv4.3, also with Hsp70 siRNA; primary antibody overnight at 4 °C, protein A/G plus agarose beads 4 h at 4 °C, washed with RIPA lysis buffer, Western blot.

Chains of the proteins cited; added tags and fusions are not shown.
UniProt Q12809: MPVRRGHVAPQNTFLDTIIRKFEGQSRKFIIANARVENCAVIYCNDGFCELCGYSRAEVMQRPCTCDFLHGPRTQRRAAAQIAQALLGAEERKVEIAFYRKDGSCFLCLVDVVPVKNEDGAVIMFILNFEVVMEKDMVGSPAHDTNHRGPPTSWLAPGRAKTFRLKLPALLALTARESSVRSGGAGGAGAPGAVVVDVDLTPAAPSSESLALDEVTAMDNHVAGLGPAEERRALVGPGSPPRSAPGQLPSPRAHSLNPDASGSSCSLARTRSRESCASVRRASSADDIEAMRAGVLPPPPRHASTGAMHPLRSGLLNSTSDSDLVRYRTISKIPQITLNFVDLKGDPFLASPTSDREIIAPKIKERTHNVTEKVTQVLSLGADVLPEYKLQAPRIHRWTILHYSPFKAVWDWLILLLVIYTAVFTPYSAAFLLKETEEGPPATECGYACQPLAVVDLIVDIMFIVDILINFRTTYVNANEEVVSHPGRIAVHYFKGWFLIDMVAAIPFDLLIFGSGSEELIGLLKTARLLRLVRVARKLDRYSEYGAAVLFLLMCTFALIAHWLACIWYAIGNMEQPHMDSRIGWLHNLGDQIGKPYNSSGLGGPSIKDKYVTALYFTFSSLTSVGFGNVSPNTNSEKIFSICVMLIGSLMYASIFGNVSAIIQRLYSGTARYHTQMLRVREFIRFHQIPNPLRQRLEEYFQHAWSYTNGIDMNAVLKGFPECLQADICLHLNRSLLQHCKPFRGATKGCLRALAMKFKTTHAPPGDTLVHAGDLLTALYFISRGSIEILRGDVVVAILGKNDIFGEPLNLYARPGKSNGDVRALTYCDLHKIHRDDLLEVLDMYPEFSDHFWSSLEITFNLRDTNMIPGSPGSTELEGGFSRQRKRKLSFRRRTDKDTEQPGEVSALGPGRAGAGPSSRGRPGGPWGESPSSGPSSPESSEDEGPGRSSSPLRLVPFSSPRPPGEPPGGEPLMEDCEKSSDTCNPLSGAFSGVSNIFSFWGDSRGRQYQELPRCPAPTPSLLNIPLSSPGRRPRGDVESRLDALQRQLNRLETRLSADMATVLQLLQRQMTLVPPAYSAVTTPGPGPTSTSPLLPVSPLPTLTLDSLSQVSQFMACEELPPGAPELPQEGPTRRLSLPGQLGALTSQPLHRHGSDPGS

The target of assay [2] is hERG (α subunit of IKr, encoded by the human ether a-go-go-related gene) (human) (UniProt Q12809). Described as above.

These are yes or no findings as the source states them, for the method shown. In cells and extracts the contact can be indirect. Some binding calls cover weakened binding; strength is not graded here.

For “hERG, core-glycosylated immature form (135 kDa) (from UniProt Q12809 1-1159)”, the binding result in assay [1] is listed as “binds”.

Turning to “hERG, fully glycosylated mature form (155 kDa) (from UniProt Q12809 1-1159)”, the binding result in assay [1] was “binds”.

B1: Kv4.3 (α subunit of Ito, KCND3) (protein, UniProt Q9UK17 1-655)
chain: MAAGVAAWLPFARAAAIGWMPVANCPMPLAPADKNKRQDELIVLNVSGRRFQTWRTTLERYPDTLLGSTEKEFFFNEDTKEYFFDRDPEVFRCVLNFYRTGKLHYPRYECISAYDDELAFYGILPEIIGDCCYEEYKDRKRENAERLMDDNDSENNQESMPSLSFRQTMWRAFENPHTSTLALVFYYVTGFFIAVSVITNVVETVPCGTVPGSKELPCGERYSVAFFCLDTACVMIFTVEYLLRLFAAPSRYRFIRSVMSIIDVVAIMPYYIGLVMTNNEDVSGAFVTLRVFRVFRIFKFSRHSQGLRILGYTLKSCASELGFLLFSLTMAIIIFATVMFYAEKGSSASKFTSIPASFWYTIVTMTTLGYGDMVPKTIAGKIFGSICSLSGVLVIALPVPVIVSNFSRIYHQNQRADKRRAQKKARLARIRVAKTGSSNAYLHSKRNGLLNEALELTGTPEEEHMGKTTSLIESQHHHLLHCLEKTTGLSYLVDDPLLSVRTSTIKNHEFIDEQMFEQNCMESSMQNYPSTRSPSLSSHPGLTTTCCSRRSKKTTHLPNSNLPATRLRSMQELSTIHIQGSEQPSLTTSRSSLNLKADDGLRPNCKTSQITTAIISIPTPPALTPEGESRPPPASPGPNTNIPSIASNVVKVSAL
For B1, the binding result in assay [2] is on record as “binds”.

The values are drawn from paper PMC5736654.
